Taken from: PubChem BioAssay AID1224830 (NIAID, 2016)
Here is one part, drawn at random, of about 18,000 deposited reagents. Of all reagents, about 2,900 (16%) got an active call. 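Calls are made per well; low scores hint the gene aids the LPS response, high scores that it dampens it.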 Repeated entries: four replicate wells of each siRNA pool. Reagent sequences are not shown.

Aim: 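Host factors that control LPS-induced TNF expression in human macrophages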 (primary screen)
Cell system: human THP-1 monocytic leukaemia cells, TNF dual-luciferase reporter clone, PMA-differentiated to macrophage-like cells
Knock-down reagent: siRNA pool against human genes, 50 nM
Timing: LPS for 4 h, given about 3 days after siRNA transfection
Conditions: bacterial LPS (TLR4 ligand), 10 ng/ml
Detection: 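TNF firefly reporter luminescence divided by renilla, normalised to the plate median, then turned into a robust z-score for each replicate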
Reading the numbers: TNF reporter robust z-score: higher = stronger TNF reporter response to LPS
Active means: 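Each well counts as active if its z-score is over 2.8 or under -1.5; controls are left without a call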

no.	target gene	TNF reporter robust z-score	Call
1	AMMECR1 (AMMECR nuclear protein 1)	-0.57	inactive
2	AMMECR1 (AMMECR nuclear protein 1)	-0.89	inactive
3	AMMECR1 (AMMECR nuclear protein 1)	-1.01	inactive
4	AMMECR1 (AMMECR nuclear protein 1)	-0.74	inactive
5	WFDC8 (WAP four-disulfide core domain 8)	0.95	inactive
6	WFDC8 (WAP four-disulfide core domain 8)	0.33	inactive
7	WFDC8 (WAP four-disulfide core domain 8)	-0.62	inactive
8	WFDC8 (WAP four-disulfide core domain 8)	0.03	inactive
9	MC1R (melanocortin 1 receptor)	-0.47	inactive
10	MC1R (melanocortin 1 receptor)	0.27	inactive
11	MC1R (melanocortin 1 receptor)	-0.59	inactive
12	MC1R (melanocortin 1 receptor)	0.71	inactive
13	KLF17 (KLF transcription factor 17)	0.17	inactive
14	KLF17 (KLF transcription factor 17)	4.32	active
15	KLF17 (KLF transcription factor 17)	1.86	inactive
16	KLF17 (KLF transcription factor 17)	0.29	inactive
17	GGT5 (gamma-glutamyltransferase 5)	-0.54	inactive
18	GGT5 (gamma-glutamyltransferase 5)	-0.88	inactive
19	GGT5 (gamma-glutamyltransferase 5)	-0.16	inactive
20	GGT5 (gamma-glutamyltransferase 5)	0	inactive
21	LSG1 (large 60S subunit nuclear export GTPase 1)	1.35	inactive
22	LSG1 (large 60S subunit nuclear export GTPase 1)	1.82	inactive
23	LSG1 (large 60S subunit nuclear export GTPase 1)	0.32	inactive
24	LSG1 (large 60S subunit nuclear export GTPase 1)	0.54	inactive
25	BAGE4 (BAGE family member 4)	1.66	inactive
26	BAGE4 (BAGE family member 4)	1.44	inactive
27	BAGE4 (BAGE family member 4)	1.29	inactive
28	BAGE4 (BAGE family member 4)	1.7	inactive
29	ZNG1A (Zn regulated GTPase metalloprotein activator 1A)	0.21	inactive
30	ZNG1A (Zn regulated GTPase metalloprotein activator 1A)	0.28	inactive
31	ZNG1A (Zn regulated GTPase metalloprotein activator 1A)	-0.79	inactive
32	ZNG1A (Zn regulated GTPase metalloprotein activator 1A)	0.58	inactive
33	COMT (catechol-O-methyltransferase)	3.27	active
34	COMT (catechol-O-methyltransferase)	3.17	active
35	COMT (catechol-O-methyltransferase)	1.56	inactive
36	COMT (catechol-O-methyltransferase)	0.15	inactive
37	TPRG1 (tumor protein p63 regulated 1)	-0.83	inactive
38	TPRG1 (tumor protein p63 regulated 1)	-0.59	inactive
39	TPRG1 (tumor protein p63 regulated 1)	-0.66	inactive
40	TPRG1 (tumor protein p63 regulated 1)	-0.65	inactive
41	BPIFB2 (BPI fold containing family B member 2)	-1.06	inactive
42	BPIFB2 (BPI fold containing family B member 2)	-1	inactive
43	BPIFB2 (BPI fold containing family B member 2)	-0.97	inactive
44	BPIFB2 (BPI fold containing family B member 2)	-0.79	inactive
45	NBPF1 (NBPF member 1)	-1.62	active
46	NBPF1 (NBPF member 1)	-0.98	inactive
47	NBPF1 (NBPF member 1)	-0.61	inactive
48	NBPF1 (NBPF member 1)	-1.27	inactive
49	YLPM1 (YLP motif containing 1)	-0.72	inactive
50	YLPM1 (YLP motif containing 1)	0.07	inactive
51	YLPM1 (YLP motif containing 1)	0.2	inactive
52	YLPM1 (YLP motif containing 1)	1.24	inactive
53	ST6GAL2 (ST6 beta-galactoside alpha-2,6-sialyltransferase 2)	-0.82	inactive
54	ST6GAL2 (ST6 beta-galactoside alpha-2,6-sialyltransferase 2)	-0.2	inactive
55	ST6GAL2 (ST6 beta-galactoside alpha-2,6-sialyltransferase 2)	-0.06	inactive
56	ST6GAL2 (ST6 beta-galactoside alpha-2,6-sialyltransferase 2)	-0.27	inactive
57	ZNF557 (zinc finger protein 557)	-0.06	inactive
58	ZNF557 (zinc finger protein 557)	0.35	inactive
59	ZNF557 (zinc finger protein 557)	-0.68	inactive
60	ZNF557 (zinc finger protein 557)	1.07	inactive
61	SMARCAL1 (SNF2 related chromatin remodeling annealing helicase 1)	1.42	inactive
62	SMARCAL1 (SNF2 related chromatin remodeling annealing helicase 1)	3.29	active
63	SMARCAL1 (SNF2 related chromatin remodeling annealing helicase 1)	2.01	inactive
64	SMARCAL1 (SNF2 related chromatin remodeling annealing helicase 1)	1.83	inactive
65	PYROXD1 (pyridine nucleotide-disulphide oxidoreductase domain 1)	-1.04	inactive
66	PYROXD1 (pyridine nucleotide-disulphide oxidoreductase domain 1)	-0.96	inactive
67	PYROXD1 (pyridine nucleotide-disulphide oxidoreductase domain 1)	-0.67	inactive
68	PYROXD1 (pyridine nucleotide-disulphide oxidoreductase domain 1)	0.02	inactive
69	ST8SIA3 (ST8 alpha-N-acetyl-neuraminide alpha-2,8-sialyltransferase 3)	-1.05	inactive
70	ST8SIA3 (ST8 alpha-N-acetyl-neuraminide alpha-2,8-sialyltransferase 3)	-1.17	inactive
71	ST8SIA3 (ST8 alpha-N-acetyl-neuraminide alpha-2,8-sialyltransferase 3)	-0.42	inactive
72	NACA2 (nascent polypeptide associated complex subunit alpha 2)	1.85	inactive
73	NACA2 (nascent polypeptide associated complex subunit alpha 2)	0.3	inactive
74	NACA2 (nascent polypeptide associated complex subunit alpha 2)	-0.31	inactive
75	NACA2 (nascent polypeptide associated complex subunit alpha 2)	-0.53	inactive

Targets listed so far whose target name starts with N or n:
target gene	TNF reporter robust z-score	Call
NBPF1 (NBPF member 1)	-1.62	active
NBPF1 (NBPF member 1)	-0.98	inactive
NBPF1 (NBPF member 1)	-0.61	inactive
NBPF1 (NBPF member 1)	-1.27	inactive
NACA2 (nascent polypeptide associated complex subunit alpha 2)	1.85	inactive
NACA2 (nascent polypeptide associated complex subunit alpha 2)	0.3	inactive
NACA2 (nascent polypeptide associated complex subunit alpha 2)	-0.31	inactive
NACA2 (nascent polypeptide associated complex subunit alpha 2)	-0.53	inactive

Further reagents follow.
no.	target gene	TNF reporter robust z-score	Call
76	BLTP2 (bridge-like lipid transfer protein family member 2)	0.62	inactive
77	BLTP2 (bridge-like lipid transfer protein family member 2)	-0.02	inactive
78	BLTP2 (bridge-like lipid transfer protein family member 2)	0.7	inactive
79	BLTP2 (bridge-like lipid transfer protein family member 2)	1.87	inactive
80	GGT6 (gamma-glutamyltransferase 6)	-0.48	inactive
81	GGT6 (gamma-glutamyltransferase 6)	-0.4	inactive
82	GGT6 (gamma-glutamyltransferase 6)	-0.63	inactive
83	GGT6 (gamma-glutamyltransferase 6)	-0.94	inactive
84	HSPA8 (heat shock protein family A (Hsp70) member 8)	-0.31	inactive
85	HSPA8 (heat shock protein family A (Hsp70) member 8)	-0.01	inactive
86	HSPA8 (heat shock protein family A (Hsp70) member 8)	-0.2	inactive
87	HSPA8 (heat shock protein family A (Hsp70) member 8)	0.95	inactive
88	PTPRN (protein tyrosine phosphatase receptor type N)	-0.49	inactive
89	PTPRN (protein tyrosine phosphatase receptor type N)	-1.12	inactive
90	PTPRN (protein tyrosine phosphatase receptor type N)	-0.36	inactive
91	GRIP2 (glutamate receptor interacting protein 2)	-1.83	active
92	GRIP2 (glutamate receptor interacting protein 2)	-1.8	active
93	GRIP2 (glutamate receptor interacting protein 2)	-1.87	active
94	GRIP2 (glutamate receptor interacting protein 2)	-2.13	active
95	DPF3 (double PHD fingers 3)	-0.14	inactive
96	DPF3 (double PHD fingers 3)	-0.58	inactive
97	DPF3 (double PHD fingers 3)	-0.96	inactive
98	DPF3 (double PHD fingers 3)	-1.31	inactive
99	ALDH4A1 (aldehyde dehydrogenase 4 family member A1)	0.21	inactive
100	ALDH4A1 (aldehyde dehydrogenase 4 family member A1)	0.05	inactive
101	ALDH4A1 (aldehyde dehydrogenase 4 family member A1)	0.86	inactive
102	TP53I3 (tumor protein p53 inducible protein 3)	0.07	inactive
103	TP53I3 (tumor protein p53 inducible protein 3)	-1.08	inactive
104	TP53I3 (tumor protein p53 inducible protein 3)	0.25	inactive
105	TP53I3 (tumor protein p53 inducible protein 3)	0.06	inactive
106	ATPSCKMT (ATP synthase c subunit lysine N-methyltransferase)	0.86	inactive
107	ATPSCKMT (ATP synthase c subunit lysine N-methyltransferase)	-0.41	inactive
108	ATPSCKMT (ATP synthase c subunit lysine N-methyltransferase)	0.01	inactive
109	ATPSCKMT (ATP synthase c subunit lysine N-methyltransferase)	0.71	inactive
110	HIC1 (HIC ZBTB transcriptional repressor 1)	-0.46	inactive
111	HIC1 (HIC ZBTB transcriptional repressor 1)	-0.79	inactive
112	HIC1 (HIC ZBTB transcriptional repressor 1)	-0.04	inactive
113	HIC1 (HIC ZBTB transcriptional repressor 1)	-0.83	inactive
114	GPR21 (G protein-coupled receptor 21)	0.21	inactive
115	GPR21 (G protein-coupled receptor 21)	0	inactive
116	GPR21 (G protein-coupled receptor 21)	-0.09	inactive
117	GPR21 (G protein-coupled receptor 21)	0.16	inactive
118	TMIGD2 (transmembrane and immunoglobulin domain containing 2)	-0.46	inactive
119	TMIGD2 (transmembrane and immunoglobulin domain containing 2)	-0.52	inactive
120	TMIGD2 (transmembrane and immunoglobulin domain containing 2)	-0.66	inactive
121	TMIGD2 (transmembrane and immunoglobulin domain containing 2)	-0.64	inactive
122	DOK7 (docking protein 7)	-0.12	inactive
123	DOK7 (docking protein 7)	-0.38	inactive
124	DOK7 (docking protein 7)	1.04	inactive
125	DOK7 (docking protein 7)	-0.39	inactive
126	ADAMTSL1 (ADAMTS like 1)	0.19	inactive
127	ADAMTSL1 (ADAMTS like 1)	3.71	active
128	ADAMTSL1 (ADAMTS like 1)	0.93	inactive
129	ADAMTSL1 (ADAMTS like 1)	-0.05	inactive
130	LRRC43 (leucine rich repeat containing 43)	-0.13	inactive
131	LRRC43 (leucine rich repeat containing 43)	0.83	inactive
132	LRRC43 (leucine rich repeat containing 43)	0.19	inactive
133	LRRC43 (leucine rich repeat containing 43)	0.72	inactive
134	PRICKLE2 (prickle planar cell polarity protein 2)	0.08	inactive
135	PRICKLE2 (prickle planar cell polarity protein 2)	0.7	inactive
136	PRICKLE2 (prickle planar cell polarity protein 2)	-0.29	inactive
137	PRICKLE2 (prickle planar cell polarity protein 2)	-0.73	inactive
138	MCRS1 (microspherule protein 1)	-0.32	inactive
139	MCRS1 (microspherule protein 1)	0.42	inactive
140	MCRS1 (microspherule protein 1)	0.86	inactive
141	MCRS1 (microspherule protein 1)	0.41	inactive
